Test results published in article PMC8226452 (Pharmaceuticals, 2021).

Assay: general procedure: Fmoc solid-phase peptide synthesis; rink amide resin; HBTU/DIPEA
Details: conjugation step; for final HPLC purity: analytical HPLC

## hybrid, chelator, and fluorescent dye-modified PESIN homodimer 5
  conjugation yield: 40% yield
  final HPLC purity: 95% purity

## hybrid, chelator, and fluorescent dye-modified PESIN homotetramer 6
  conjugation yield: 35% yield
  final HPLC purity: 95% purity
